Data as given in PubChem BioAssay AID720505 (Drosophila RNAi Screening Center, 2013).
The deposit covers about 20,000 reagents; shown is an unselected part of those that have a named target and a result. Of all reagents, about 2,100 (10%) got an active call. 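Raw plate signals without normalisation; calls rest on control-based scores that were not deposited; replicate 2 separates called from uncalled poorly.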 Names joined by + are all predicted targets of the reagent. No sequences are given here. The record does not give: the amount of reagent, the time to read-out.

Screen: 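Knock-downs that reduce calcium influx once internal stores are emptied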 (primary screen)
Cell system: Drosophila S2R+ cells
Reagent: long dsRNA against Drosophila genes
Challenge: thapsigargin (2 µM) in calcium-free buffer to empty internal stores, then 2 mM calcium added back
Read-out: 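Stores emptied by 2 µM thapsigargin without calcium, then 2 mM calcium re-added; fluo-4 fluorescence followed by FLIPR in 384-well plates, per-well averaged endpoint, raw; two screen passes, some wells retested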
Direction: calcium signal: higher = more calcium entry after store depletion
Active means: 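Knock-downs counted as hits when calcium entry dropped relative to STIM1 positive and Rho1 negative controls present on each plate; roughly 1500 genes called, with reductions of differing size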
Calls: active = called as lowering calcium entry; inactive = not called

gene knocked down | dsRNA | calcium signal, replicate 1 | calcium signal, replicate 2 | outcome
HDAC1 | DRSC08696 | 58.6 | 107 | active
Dhrs4 | DRSC09773 | 72.1 | 69.7 | active
CG2685 | DRSC18463 | 86.4 | 130 | inactive
CG13599 | DRSC14602 | 146 | 130 | inactive
CG42816 | DRSC11230 | 170 | 234 | inactive
Elba3 | DRSC00469 | 107 | 120 | inactive
CG31752 | DRSC22599 | 132 | 193 | inactive
CG17732 | DRSC10283 | 101 | 120 | inactive
ssp | DRSC10252 | 101 | 87.3 | inactive
Sdhaf3 | DRSC15020 | 78.2 | 149 | inactive
bys | DRSC18748 | 108 | 103 | inactive
CG7715 | DRSC16301 | 150 | 165 | inactive
cype | DRSC02356 | 223 | 88.1 | inactive
Trm7-32 | DRSC15741 | 231 | 313 | inactive
CG12824 | DRSC06173 | 108 | 107 | inactive
Ance-3 | DRSC02648 | 90.3 | 95.8 | inactive
Ance-3 | DRSC02649 | 125 | 148 | inactive
CG14100 | DRSC10101 | 117 | 119 | inactive
Son | DRSC16400 | 140 | 152 | inactive
Ggamma30A | DRSC02715 | 161 | 172 | inactive
Ggamma30A | DRSC03331 | 155 | 174 | inactive
Tengl3 | DRSC22288 | 124 | 225 | inactive
CG33491 (retired record) + CG33496 (retired record) + CG33487 (retired record) + 1 more | DRSC22969 | 103 | 170 | inactive
trh | DRSC08355 | 127 | 74.2 | inactive
trh | DRSC08739 | 120 | 125 | inactive
ndl | DRSC11374 | 83.9 | 78.5 | inactive
ens | DRSC08454 | 66.4 | 112 | active
Act57B | DRSC04042 | 157 | 76.5 | inactive
Syn1 | DRSC11803 | 117 | 168 | inactive
Syn1 | DRSC11804 | 89 | 139 | inactive
mAChR-C | DRSC17890 | 226 | 162 | inactive
CG8034 | DRSC20076 | 177 | 114 | inactive
Lnpk | DRSC07254 | 156 | 153 | inactive
salr | DRSC03607 | 231 | 144 | inactive

6 consecutive reagents from above, quoted:
gene knocked down | dsRNA | calcium signal, replicate 1 | calcium signal, replicate 2 | outcome
cype | DRSC02356 | 223 | 88.1 | inactive
Trm7-32 | DRSC15741 | 231 | 313 | inactive
CG12824 | DRSC06173 | 108 | 107 | inactive
Ance-3 | DRSC02648 | 90.3 | 95.8 | inactive
Ance-3 | DRSC02649 | 125 | 148 | inactive
CG14100 | DRSC10101 | 117 | 119 | inactive
